Assay results taken from article PMC6949151.
Results are given in words; binding and its absence hold for the method and conditions named. Binding seen in cells or lysates may run through a third protein. Some binding calls cover weakened binding; strength is not graded here.

By UniProt entry, the sequences of proteins in these tests, tags left out.
UniProt P05412: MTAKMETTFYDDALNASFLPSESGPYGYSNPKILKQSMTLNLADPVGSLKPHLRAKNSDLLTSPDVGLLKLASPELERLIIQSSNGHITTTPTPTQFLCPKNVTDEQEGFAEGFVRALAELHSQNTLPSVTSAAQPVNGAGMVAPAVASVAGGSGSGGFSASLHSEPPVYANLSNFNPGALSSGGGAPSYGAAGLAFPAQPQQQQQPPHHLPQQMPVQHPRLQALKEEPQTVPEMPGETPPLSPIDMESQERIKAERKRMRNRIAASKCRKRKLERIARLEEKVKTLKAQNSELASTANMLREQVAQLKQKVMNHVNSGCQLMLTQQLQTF

What was measured:
Flag-c-FOS [1] = target: Flag-c-FOS (UniProt P01100); assay: co-IP; RPTEC/TERT1 OAT3 cells co-transfected with a 6×Myc and a 2×Flag plasmid, 48 h; lysed in 1× RIPA buffer with protease inhibitor; immunoprecipitated with anti-Flag agarose and anti-Myc agarose; western blotting
[2] = target: Flag-p300 (histone acetyltransferase p300) (UniProt Q09472); assay: as above
Flag-c-Jun [3] = target: Flag-c-Jun (UniProt P05412); assay: as above
Flag-c-FOS [4] = target: Flag-c-FOS (UniProt P01100); assay: co-IP; the anti-Flag immunoprecipitates of Flag-c-FOS and Flag-c-Jun used for mass spectrometry, western blotted for endogenous CtBP2 and p300
Flag-c-Jun [5] = target: Flag-c-Jun (UniProt P05412); assay: as above

binding (Flag-c-FOS [1]) | binding [2] | binding (Flag-c-Jun [3]) | binding (Flag-c-FOS [4]) | binding (Flag-c-Jun [5]) | Substance
no binding | binds |  |  |  | Myc-CtBP2 (C-terminal binding protein 2) (from UniProt P56545 1-445)
binds |  | binds |  |  | Myc-p300 (histone acetyltransferase p300) (from UniProt Q09472 1-2414)
 |  |  | binds | binds | histone acetyltransferase p300 (from UniProt Q09472 1-2414)
